Laboratory results: PubChem BioAssay AID2685 (National Center for Advancing Translational Sciences (NCATS), 2010)
The other results are listed elsewhere or left out. The main result of the screen is listed elsewhere. These columns were measured beside it and carry no call. Compounds called inactive in the main read-out are mostly missing here. The note in brackets gives the kind of curve behind each potency; many fits are weak.

Assay: qHTS Assay for Lipid Storage Modulators in Drosophila S3 Cells;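 as to cell number change: cells counted by Cell Tracker Red CMTPX staining in the red channel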
Conditions: BODIPY lipid droplet fluorescence, 18-24 h; for cell number change: measured here: cell count max response, cells fed with added oleic acid
How it was run: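 Laser-scanning cytometry quantifies lipid droplet accumulation (500–530 nm total intensity; droplet/cell object ratio) in oleic acid-fed (400 uM added) Drosophila S3 cells treated with a concentration series. 20 uM Triacsin C defined 100% inhibition.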

[1] = measured here: cell number channel AC50, cells fed with added oleic acid
[2] = measured here: lipid fluorescence (Fed channel) AC50, cells fed with added oleic acid

Row | SMILES | cell number change | AC50 [1] | AC50 [2]
1 | COC(=O)C1=Nc2ccccc2/C1=C\c1c(O)n(-c2ccc(Br)cc2)c(=O)[nH]c1=O | 1.84% | 0.146 µM [rising, full curve, poor fit] | –
2 | CCN(CC)P(=O)(c1n(CC)cc[n+]1CC)N(CC)CC | -19.7% | – | 11.6 µM [falling, partial curve]
3 | CCOc1cc(C=C2C(=O)NC(=O)NC2=O)ccc1OCC(=O)N1CCOCC1 | 110% | 25.9 µM [rising, single point] | –
4 | O=c1[nH]c(=S)n(-c2ccccc2Cl)c(O)c1C=NCCN1CCNCC1 | 64.1% | 16.4 µM [rising, partial curve] | –
5 | CCCCCc1nc2c(c(=O)c3ccccc3n2C)c(=O)n1C1CCCCCC1 | -33.7% | 18.4 µM [falling, single point] | 25.9 µM [falling, single point]
6 | CCOC(=O)C1(c2ccccc2)CCN(CC(=O)Nc2cccc3ccccc23)CC1 | 1.87% | 6.51 µM [rising, single point] | –
7 | Cc1ccc2c(c1)CCCN2N=O | 3.22% | – | 18.4 µM [rising, partial curve]
8 | O=c1[nH]c(O)c(C=Nc2ccc(Cl)c(C(F)(F)F)c2)c(=O)[nH]1 | 18.5% | 0.13 µM [rising, full curve, poor fit] | –
9 | COc1ccc(CCC(=O)N2C[C@H]3C[C@@H](C2)c2cccc(=O)n2C3)cc1 | 18.7% | – | 4.11 µM [rising, full curve, poor fit]
10 | COc1ccc(-c2n(-c3ccccn3)c3ccccc3[n+]2-c2ccccn2)cc1 | -4.6% | – | 5.8 µM [falling, partial curve, poor fit]
11 | Nc1ccccc1N=Cc1c(O)n(CCC2=CCCCC2)c(=O)[nH]c1=O | -19.3% | – | –
12 | Cc1cccc(NC(=O)CN2CCN(C(=O)COc3cccc(Br)c3)CC2)c1C | 4.85% | – | 0.231 µM [rising, partial curve, poor fit]
13 | COc1ccccc1NC(=O)Oc1ccc(C(C)=O)cc1 | – | 0.461 µM [falling, single point] | –
14 | Nc1cc(Cl)c2nonc2c1[N+](=O)[O-] | -74.4% | 6.51 µM [falling, partial curve] | 4.61 µM [falling, full curve]
15 | O=[N+]([O-])c1ccc(NC2CCCC2)c2ccncc12 | 38.8% | 14.6 µM [rising, partial curve, poor fit] | –
16 | Cc1ccc(CN2CCN(C)CC2)c(C)c1 | -44.5% | 13 µM [falling, partial curve] | 16.4 µM [falling, single point]
17 | CN1CCc2cccc(Cl)c2CC1 | -39.4% | 32.6 µM [falling, single point] | –
18 | COc1ccc(CNCCc2ccc3c(c2)OCO3)c(OC)c1OC | 9.72% | – | –
19 | COC(=O)C1=C(c2ccc(F)cc2F)C[C@@H]2CC[C@H]1N2C(=O)NC1CC1 | 0.12% | – | 5.8 µM [rising, partial curve]
20 | COc1cc(C=C2C(=O)NC(=O)NC2=O)ccc1OS(=O)(=O)c1ccccc1[N+](=O)[O-] | -7.62% | – | –
21 | C=CCn1c(O)c(C(C)=NC(C)c2ccccc2)c(=O)[nH]c1=O (stereo not drawn) | 21.3% | – | 29.1 µM [rising, single point]

Row | SMILES | cell number change | AC50 [1] | AC50 [2]
22 | COCCNP(=O)(c1ccccc1)c1nc2ccccc2s1 (stereo not drawn) | 18.4% | – | –
23 | C[N+]1(C)[C@@H]2CC(OC(=O)[C@H](CO)c3ccccc3)C[C@H]1[C@@H]1O[C@@H]12 (stereo partly drawn) | 37.5% | 23.1 µM [rising, single point] | 29.1 µM [falling, single point]
24 | CCCCOP(=O)(OCCCC)C(Nc1ccc(C(=O)OCC)cc1)c1ccncc1 (stereo not drawn) | – | 6.51 µM [falling, full curve, poor fit] | –
25 | CCCC[N+]12CCC(CC1)C(C(=O)c1cccs1)C2 (stereo not drawn) | -13.4% | – | –
26 | CC(C)n1cc(C(=O)N(CC(=O)NC2CCCC2)Cc2ccccc2)cn1 | -2.93% | – | 0.411 µM [falling, full curve, poor fit]
27 | Cc1cc(=O)oc2cc(OCC(=O)N3C[C@H]4C[C@@H](C3)c3cccc(=O)n3C4)ccc12 | 6.15% | – | 2.59 µM [rising, partial curve, poor fit]
28 | NP(=O)(OCCCc1ccccc1)Oc1ccccc1Cl (stereo not drawn) | 18.3% | – | –
29 | COc1ccccc1OCCn1c(=O)oc2ccc(C)cc21 | – | 11.6 µM [rising, partial curve, poor fit] | –
30 | O=[N+]([O-])c1ccc(-c2ccccc2)c([As](=O)(O)O)c1 | -49.2% | 29.1 µM [falling, single point] | 25.9 µM [falling, partial curve, poor fit]
31 | COc1cccc(OP(=O)(Nc2ccccc2)Oc2cccc(OC)c2)c1 | -12% | – | 1.46 µM [rising, single point]
32 | CCCCCCn1c(O)c(C=NCCN2CCCCC2)c(=O)[nH]c1=O | – | 0.0058 µM [falling, full curve, poor fit] | 0.00461 µM [falling, full curve, poor fit]
33 | O=C(c1ccco1)c1cn(Cc2ccc(Cl)cc2)c2ccccc12 | -15.1% | – | –
34 | COc1cccc(C2CCN(CC(=O)Nc3cc(Cl)ccc3OC)CC2O)c1 (stereo not drawn) | 20.2% | 3.26 µM [rising, partial curve] | –
35 | O=C(COc1ccc(S(=O)(=O)N2CCOCC2)cc1)N1CCN(Cc2ccc3c(c2)OCO3)CC1 | 2.1% | – | –
36 | CCC(=NCC1CCCO1)c1c(O)n(-c2ccccc2)c(=O)[nH]c1=O (stereo not drawn) | -9.73% | – | 5.8 µM [falling, partial curve]
37 | Cn1c(O)c(N=Nc2cccc(S(=O)(=O)N3CCOCC3)c2)c(=O)n(C)c1=O | 81.5% | 18.4 µM [rising, single point] | –
38 | CCc1ccccc1NC(=O)CNCc1ccccc1 | -23.1% | – | 0.103 µM [falling, full curve, poor fit]
39 | O=C1NC(=S)N(c2ccc(F)cc2)C(=O)/C1=C\c1ccoc1 | -21.5% | – | –
40 | COC(=O)N1C(c2ccccc2)C1c1ccccc1 (stereo not drawn) | 4.06% | – | 29.1 µM [rising, single point]
41 | C=CCn1c(O)c(/C=N/NC(=O)c2ccncc2)c(=O)[nH]c1=O | -9.18% | 6.51 µM [rising, single point] | –
42 | c1ccc2c(CN3CCOCC3)c[nH]c2c1 | -11.1% | – | 18.4 µM [rising, single point]

Row | SMILES | cell number change | AC50 [1] | AC50 [2]
43 | O=C(COC(=O)Cc1ccccc1)NC(=O)NC1CCCCC1 | 8.5% | – | –
44 | CCC(=NCc1ccco1)c1c(O)n(-c2ccc(C)cc2)c(=O)[nH]c1=O | -12.5% | 0.259 µM [rising, partial curve, poor fit] | 2.59 µM [rising, partial curve]
45 | COC(=O)C1=C(c2ccc(F)cc2OCc2ccccc2)C[C@@H]2CC[C@H]1N2C(=O)N1CCC(C)CC1 | -10.1% | – | –
46 | Oc1c(Br)c(Br)c(Br)c(Br)c1Br | 11.3% | 0.116 µM [falling, single point] | –
47 | FC(F)(F)Oc1ccc(C2NCc3ccccc3-n3cccc32)cc1 (stereo not drawn) | -41.5% | 20.6 µM [falling, single point] | 20.6 µM [falling, single point]
48 | Cc1ccc(N2C(=O)NC(=O)/C(=C\C=C\c3ccco3)C2=O)cc1 | -38.9% | 18.4 µM [falling, single point] | 29.1 µM [falling, single point]
49 | CCNc1nc(Cl)nc(NC(C)C)n1 | 11.4% | – | 6.51 µM [falling, single point]
50 | O=c1[nH]c(O)c(C=Nc2ccccc2[N+](=O)[O-])c(=O)[nH]1 | 14% | – | –
51 | CCOc1ccccc1N1C(=O)CC(=O)NC1=O | -1.79% | – | –
52 | CCS(=O)(=O)N1CCC(C(=O)N2CCC3(CC2)OCCO3)CC1 | -71.2% | 20.6 µM [falling, partial curve] | 2.06 µM [falling, single point]
53 | CCC1(CCc2ccncc2)C(=O)NC(=O)NC1=O | -1.19% | – | 0.146 µM [falling, full curve]
54 | CCN1CCN(C(=O)COc2ccc3c(c2)C(=O)CC2(CCN(C(C)=O)CC2)O3)CC1 | -99.9% | 3.26 µM [falling, partial curve] | –
55 | Cn1c(N2CCNCC2)nc2ccccc21 | -7.51% | 5.8 µM [falling, partial curve, poor fit] | 0.092 µM [falling, full curve, poor fit]
56 | COCCNC(=O)c1ccc(N2CC3CC(C2)c2cccc(=O)n2C3)c([N+](=O)[O-])c1 (stereo not drawn) | -4.75% | – | 6.51 µM [falling, single point]
57 | Cc1ccc(S(=O)(=O)N2CCC(C(=O)N3CCC4(CC3)OCCO4)CC2)cc1 | -32.1% | 0.517 µM [falling, partial curve, poor fit] | –
58 | OC1(c2ccc(F)cc2)CC2CCC(C1)N2Cc1nnnn1C1CCCC1 (stereo not drawn) | 38.5% | 29.1 µM [rising, single point] | 29.1 µM [rising, single point]
59 | CCCN1C2CCCC1CC(NC(C)=O)C2 (stereo not drawn) | -0.429% | – | 0.116 µM [falling, full curve, poor fit]
60 | O=C(N/N=C/c1c(O)n(C2CC2)c(=S)[nH]c1=O)c1ccccc1Cl | 12.8% | – | 16.4 µM [rising, single point]
61 | COc1cccc(OC)c1C(=O)NC(=S)N1C[C@H]2C[C@H](C1)c1cccc(=O)n1C2 | 29.4% | – | –
62 | c1ccc(CCNC2CCCCCC2)cc1 | 22% | – | 6.51 µM [falling, single point]
